Measured values taken from paper PMC8970474.
These are yes or no findings as the source states them, for the method shown. Binding seen in cells or lysates may run through a third protein. Some entries that bind do so weakly or less than the wild type. For some of these results: Sequences can lack the tags named with a protein.

Protein sequences, listed by entry. Tags and fused reporters are not part of them. Residues count along the entry.
UniProt P31016, residues 403-724: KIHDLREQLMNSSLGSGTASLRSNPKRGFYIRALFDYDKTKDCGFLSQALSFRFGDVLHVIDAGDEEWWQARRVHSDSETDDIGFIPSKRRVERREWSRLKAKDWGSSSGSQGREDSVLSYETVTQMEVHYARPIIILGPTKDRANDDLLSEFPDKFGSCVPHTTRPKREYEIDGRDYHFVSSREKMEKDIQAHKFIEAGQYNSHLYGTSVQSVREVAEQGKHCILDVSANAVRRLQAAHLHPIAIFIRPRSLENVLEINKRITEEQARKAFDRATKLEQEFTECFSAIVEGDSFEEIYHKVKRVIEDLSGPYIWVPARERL
UniProt P62813, residues 28-455: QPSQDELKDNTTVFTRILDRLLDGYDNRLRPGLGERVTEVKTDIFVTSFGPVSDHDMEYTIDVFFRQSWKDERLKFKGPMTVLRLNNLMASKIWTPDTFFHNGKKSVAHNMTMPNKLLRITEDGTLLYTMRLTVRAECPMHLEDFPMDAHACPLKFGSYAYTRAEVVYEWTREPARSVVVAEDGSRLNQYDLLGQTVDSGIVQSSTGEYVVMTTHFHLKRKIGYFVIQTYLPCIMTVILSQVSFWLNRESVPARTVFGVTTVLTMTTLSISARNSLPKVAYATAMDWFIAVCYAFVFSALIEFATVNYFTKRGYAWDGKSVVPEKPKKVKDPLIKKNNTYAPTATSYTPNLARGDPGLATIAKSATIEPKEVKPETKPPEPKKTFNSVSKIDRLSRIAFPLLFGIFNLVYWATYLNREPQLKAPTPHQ
UniProt P23576, residues 29-451: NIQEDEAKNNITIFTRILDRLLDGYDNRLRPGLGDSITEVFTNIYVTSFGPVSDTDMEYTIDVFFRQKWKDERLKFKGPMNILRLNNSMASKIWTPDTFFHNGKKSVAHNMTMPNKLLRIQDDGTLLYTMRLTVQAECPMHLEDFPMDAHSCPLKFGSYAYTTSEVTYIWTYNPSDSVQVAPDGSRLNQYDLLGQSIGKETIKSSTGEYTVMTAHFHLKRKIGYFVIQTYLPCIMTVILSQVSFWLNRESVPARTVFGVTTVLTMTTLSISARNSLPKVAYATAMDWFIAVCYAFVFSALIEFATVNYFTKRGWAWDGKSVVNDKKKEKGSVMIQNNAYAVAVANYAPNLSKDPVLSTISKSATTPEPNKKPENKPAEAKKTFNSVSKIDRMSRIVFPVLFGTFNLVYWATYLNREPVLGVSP
UniProt P63079, residues 26-473: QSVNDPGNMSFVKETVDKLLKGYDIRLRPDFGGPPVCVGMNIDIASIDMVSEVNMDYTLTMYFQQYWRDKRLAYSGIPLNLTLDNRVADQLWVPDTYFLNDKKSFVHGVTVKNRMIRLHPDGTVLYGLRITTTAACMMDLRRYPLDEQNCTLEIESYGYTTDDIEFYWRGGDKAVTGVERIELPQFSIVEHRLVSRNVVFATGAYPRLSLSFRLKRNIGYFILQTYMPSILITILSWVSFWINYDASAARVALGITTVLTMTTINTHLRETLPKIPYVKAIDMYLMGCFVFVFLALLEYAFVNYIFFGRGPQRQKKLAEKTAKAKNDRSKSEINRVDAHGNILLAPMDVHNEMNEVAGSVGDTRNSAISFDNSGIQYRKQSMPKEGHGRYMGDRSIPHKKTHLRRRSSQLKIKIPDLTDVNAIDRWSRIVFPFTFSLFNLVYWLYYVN
UniProt O60331: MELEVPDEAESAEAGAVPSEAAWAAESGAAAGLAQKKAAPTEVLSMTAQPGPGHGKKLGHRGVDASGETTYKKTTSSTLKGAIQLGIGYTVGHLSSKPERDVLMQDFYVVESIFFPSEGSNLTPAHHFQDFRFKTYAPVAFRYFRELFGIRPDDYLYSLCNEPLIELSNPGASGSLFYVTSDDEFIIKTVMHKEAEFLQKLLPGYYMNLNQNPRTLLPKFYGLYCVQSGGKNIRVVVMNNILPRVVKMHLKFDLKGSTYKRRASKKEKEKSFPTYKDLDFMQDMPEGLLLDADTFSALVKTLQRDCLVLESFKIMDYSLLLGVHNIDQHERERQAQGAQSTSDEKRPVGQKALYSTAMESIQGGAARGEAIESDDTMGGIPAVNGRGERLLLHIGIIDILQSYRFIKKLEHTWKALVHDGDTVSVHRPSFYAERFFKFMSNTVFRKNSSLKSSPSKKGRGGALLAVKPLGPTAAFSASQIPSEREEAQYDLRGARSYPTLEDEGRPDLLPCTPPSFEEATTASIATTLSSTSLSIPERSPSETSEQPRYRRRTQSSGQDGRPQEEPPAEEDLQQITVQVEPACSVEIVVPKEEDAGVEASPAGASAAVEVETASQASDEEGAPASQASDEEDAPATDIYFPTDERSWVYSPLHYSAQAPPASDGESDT

What was measured:
EGFP-MPP2 (mouse) = biological target: T1, EGFP-MPP2 (mouse) (UniProt Q9WV34); test: co-IP; co-expression in HEK293T cells; lysis in 50 mM Tris pH 7.4, 100 mM NaCl, 1 mM EDTA, 1% Triton-X or 0.1% NP-40; precipitated with αGFP or normal mouse IgG and protein-G-agarose, 4°C; western blot
T1 sequence: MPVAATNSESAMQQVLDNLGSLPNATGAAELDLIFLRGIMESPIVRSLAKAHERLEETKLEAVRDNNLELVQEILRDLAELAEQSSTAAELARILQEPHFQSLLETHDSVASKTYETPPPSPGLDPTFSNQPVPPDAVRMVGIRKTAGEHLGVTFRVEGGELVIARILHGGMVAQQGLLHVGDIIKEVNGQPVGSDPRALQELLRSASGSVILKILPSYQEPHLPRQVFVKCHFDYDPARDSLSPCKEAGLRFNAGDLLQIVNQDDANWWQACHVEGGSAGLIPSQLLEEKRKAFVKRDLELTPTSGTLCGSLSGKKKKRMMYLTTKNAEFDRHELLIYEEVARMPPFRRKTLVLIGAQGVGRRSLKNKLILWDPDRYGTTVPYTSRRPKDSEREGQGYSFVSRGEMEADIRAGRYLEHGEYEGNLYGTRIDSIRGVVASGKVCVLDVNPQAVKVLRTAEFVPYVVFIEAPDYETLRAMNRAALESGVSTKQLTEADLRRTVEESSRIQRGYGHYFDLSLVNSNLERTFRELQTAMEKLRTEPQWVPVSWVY

GST-PSD-95-SH3GK = GST-PSD-95-SH3GK (UniProt P31016); test: pull-down; GST-SH3GK proteins on glutathione agarose, incubated with crude brain synaptosome preparations; western blot with αGABAAR α1 and αGST; bead control; only the target purified
GST-MPP2-SH3GK (mouse) = biological target: T2, GST-MPP2-SH3GK (mouse) (UniProt Q9WV34); test: as above
T2 sequence: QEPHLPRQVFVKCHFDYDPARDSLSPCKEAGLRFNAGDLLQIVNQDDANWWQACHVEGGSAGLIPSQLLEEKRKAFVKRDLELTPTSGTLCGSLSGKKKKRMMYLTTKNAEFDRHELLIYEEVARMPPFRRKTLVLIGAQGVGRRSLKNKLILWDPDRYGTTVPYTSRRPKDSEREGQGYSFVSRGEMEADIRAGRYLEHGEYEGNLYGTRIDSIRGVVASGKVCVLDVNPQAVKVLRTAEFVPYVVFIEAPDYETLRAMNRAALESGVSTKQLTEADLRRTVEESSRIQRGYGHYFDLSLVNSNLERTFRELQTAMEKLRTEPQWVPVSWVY

[1] = biological target: pHluorin-tagged GABAAR α1 (UniProt P62813); test: co-IP; pHluorin-tagged GABAA receptor subunit and FLAG-MPP2 co-expressed in CHL V79 cells; precipitated with Ms αGFP or normal Ms-IgG; western blot with αFLAG-HRP and αGFP
[2] = biological target: pHluorin-tagged GABAAR α2 (UniProt P23576); test: as above
[3] = biological target: pHluorin-tagged GABAAR β3 (UniProt P63079); test: as above
EGFP-tagged Pip5k1c = EGFP-tagged Pip5k1c (UniProt O60331); test: co-IP; co-expression in HEK293T cells; lysis in 50 mM Tris pH 7.4, 100 mM NaCl, 1 mM EDTA, 1% Triton-X or 0.1% NP-40; precipitated with αGFP or normal mouse IgG and protein-G-agarose, 4°C; western blot

HA-Gnao1 (from UniProt P59215-1 1-354)
binding (EGFP-MPP2 (mouse)): binds

FLAG-tagged Ppp3ca (from UniProt P63329-1 1-521) (enzyme)
binding (EGFP-MPP2 (mouse)): binds

GABAAR α1 (Gamma-aminobutyric acid receptor subunit alpha-1), endogenous (from UniProt P62813 28-455)
binding (GST-PSD-95-SH3GK): no binding
binding (GST-MPP2-SH3GK (mouse)): binds

B1: FLAG-MPP2 (full-length, in CHL V79 cells) (protein, UniProt Q9WV34-1 1-552)
chain: T1 sequence
binding [1]: binds
binding [2]: binds
binding [3]: binds

B2: FLAG-tagged Arhgef2 (protein, UniProt Q5FVC2 1-985)
chain: MSRIESLTRARIDRSKEQATKTREKEKMKEAKDARYTNGHLFTTISVSGMTMCYACNKSITAKEALICPTCNVTIHNRCKDTLANCTKVKQKQQKAALLRNNTALQSVSLRSKTTTRERPTSAIYPSDSFRQSLLGSRRGLSSLSLAKSVSTTNIAGHFNDESPLGLRQILSQSTDSLNMRNRTLSVESLIDEGVEVFYNELMSDFEMDEKDFEADSWSLAVDSSFLQQHKKEVMKKQDVIYELIQTELHHVRTLKIMTRLFRTGMLEELQMEPEVVQGLFPCVDELSDIHTRFLSQLLERRRQALCPGSTRNFVIHRLGDLLISQFSGSNAEQMRKTYSEFCSRHTKALKLYKELYARDKRFQQFIRKMTRSAVLKRHGVQECILLVTQRITKYPVLINRILQNSHGIEEEYQDLAAALGLVKELLSNVDQDVHELEKEARLQEIYNRMDPRAQTPVPGKGPFGRDELLRRKLIHDGCLLWKTATGRFKDVLLLLMTDVLVFLQEKDQKYIFTSLDKPSVVSLQNLIVRDIANQAKGMFLISSGPPEMYEVHAASRDDRTTWIRVIQQSVRLCPSREDFPLIETEDKAYLRRIKTKLQQKNQALVELLQMNVELFAEMVHFQALKAGFIGMPPPTLPRGLFRLESFESLRGERLLKDALREVEGLKDLLLGPCVDLPLTAREPALPVEADSGSCPGVTANGEARTFNGSIELCRADSDSSQKDRNGNQLRSPQEEALQPLVNLYGLLQGLQAVVVQQERLMEALFPEGPERWEKLSRANSRDGEAGRAAVASVTPEKQATELALLQRQHSLLQEELRRCQRLGEERATEAGSLEARLRESEQARALLEREAEEIRRQLAALGQNEPLPAEAPWARRPLDPRRRSLPAGDALYLSFNPPQPSRGHDRLDLPVTVRSLHRPFDDREAQELGSPEDRLQDSSDPDTCSEEEVSSRLSPPHSPRDFTRMQDIPEETESRDGEPTASES
binding (EGFP-MPP2 (mouse)): binds

B3: FLAG-tagged Farp1 (protein, UniProt F1LYQ8 1-1049)
chain: MGEIEQKPTPASRLGAPENSGISTLERGQKPPPTPSGKLMTVKIQMLDDTQEAFEVPQRAPGKVLFDAVCNHLNLVEGDYFGLEFPDHRKIVVWLDLLKPIVKQIRRPKHVLVKFVVKFFPPDHTQLQEELTRYLFALQVKQDLAQGRLTCNDTSAALLISHIVQSEIGDFDEALDREHLAKNKYVPQQDALEDKIVEFHHSHIGQTPAESDFQLLEVARRLEMYGIRLHPAKDREGTKINLAVANTGILVFQGFTKINAFNWAKVRKLSFKRKRFLIKLRPDVNSSYQDTLEFLMAGRDFCKSFWKICVEHHAFFRLFEEPKPKPKPVLFSRGSSFRFSGRTQKQVLDYVKEGGHKKVQFERKHSKIHSTRSLVSQPTAPNSEVPKQSPQSASLTFGEGTESPSAQSCQQAKETKVCTLEPGPRQSPALSKSPSGSKAADGTAAAAPPEEEDEEEGGKDGIRPSNPQPPQPSTGSLTGSPHLSELSINSQGGAAPANVTLSPNLSPDNKQASPLISPLLNDQACPRTDDEEEGRRKRFPTDKAYYIAKEVSTTERTYLKDLEVIASWFQSTVSKEDSMPEALKSLIFPNFEPLHKFHTNFLKEIEQRLALWEGRSNAHIRGDYQRIGDVMLKNIQGMKHLAAHLWKHSEALEALETSIKGSRRLEHFCRDFELQKVCYLPLNTFLLRPLHRLMHYKQVLERLCKHHPPNHADFRDCRAALAEITEMVAQLHGTMIKMENFQKLHELKKDLIGIDNLVIPGREFIRLGSLSKLSGKGLQQRMFFLFNDVLLYTSRGLTASNQFKVHGQLPLYGMTIEESEEEWGVPHCLTLRGQRQSIIVAASSRSEMEKWLEDIQMAIDLAEKSNGPTPELLASSPPDNKSPDEATAADQESEDDLSASRTSLERQAPHRGNTMVHVCWHRSTSVSMVDFSIAVENQLSGNLLRKFKNSNGWQKLWVVFTNFCLFFYKSHQDSHPLASLPLLGYSLTIPSESENIHKDYVFKLHFKSHVYYFRAESEYTFERWMEVIRSATSSASRAHSLSHKESHLY
binding (EGFP-MPP2 (mouse)): binds

B4: FLAG-MPP2 (in HEK293T cells) (protein, UniProt Q9WV34-1 1-552)
chain: T1 sequence
binding (EGFP-tagged Pip5k1c): binds
